Results published in the supplement of paper PMC10849652.
Some of the results follow.

Amino acid sequences for entries named in this document (tags omitted). A change or cut given only in a name is not applied to a line headed by its entry.
UniProt O60716: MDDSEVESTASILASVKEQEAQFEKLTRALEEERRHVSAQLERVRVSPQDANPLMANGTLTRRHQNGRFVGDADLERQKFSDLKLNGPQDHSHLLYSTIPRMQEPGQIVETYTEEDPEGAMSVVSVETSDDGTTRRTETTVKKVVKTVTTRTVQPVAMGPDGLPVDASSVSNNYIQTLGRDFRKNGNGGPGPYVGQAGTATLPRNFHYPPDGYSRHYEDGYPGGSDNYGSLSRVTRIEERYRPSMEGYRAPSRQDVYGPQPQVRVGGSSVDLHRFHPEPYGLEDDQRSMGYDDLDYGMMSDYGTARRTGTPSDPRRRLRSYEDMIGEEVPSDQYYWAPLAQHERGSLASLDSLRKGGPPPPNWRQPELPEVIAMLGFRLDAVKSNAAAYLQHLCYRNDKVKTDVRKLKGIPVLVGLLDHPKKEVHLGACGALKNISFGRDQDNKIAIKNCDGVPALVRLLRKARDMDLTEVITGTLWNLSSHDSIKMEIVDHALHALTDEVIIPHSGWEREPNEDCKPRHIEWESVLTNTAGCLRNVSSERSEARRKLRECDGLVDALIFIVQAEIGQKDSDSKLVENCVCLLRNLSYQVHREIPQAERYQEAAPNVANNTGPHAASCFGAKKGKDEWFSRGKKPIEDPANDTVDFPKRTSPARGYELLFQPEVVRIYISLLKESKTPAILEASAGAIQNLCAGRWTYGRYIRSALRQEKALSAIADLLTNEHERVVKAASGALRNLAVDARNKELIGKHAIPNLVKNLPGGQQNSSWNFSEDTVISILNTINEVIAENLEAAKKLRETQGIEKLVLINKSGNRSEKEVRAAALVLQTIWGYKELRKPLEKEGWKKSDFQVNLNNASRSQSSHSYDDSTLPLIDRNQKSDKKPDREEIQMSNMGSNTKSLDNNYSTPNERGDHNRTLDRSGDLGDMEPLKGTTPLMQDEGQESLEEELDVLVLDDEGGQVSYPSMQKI
UniProt Q8WYA6: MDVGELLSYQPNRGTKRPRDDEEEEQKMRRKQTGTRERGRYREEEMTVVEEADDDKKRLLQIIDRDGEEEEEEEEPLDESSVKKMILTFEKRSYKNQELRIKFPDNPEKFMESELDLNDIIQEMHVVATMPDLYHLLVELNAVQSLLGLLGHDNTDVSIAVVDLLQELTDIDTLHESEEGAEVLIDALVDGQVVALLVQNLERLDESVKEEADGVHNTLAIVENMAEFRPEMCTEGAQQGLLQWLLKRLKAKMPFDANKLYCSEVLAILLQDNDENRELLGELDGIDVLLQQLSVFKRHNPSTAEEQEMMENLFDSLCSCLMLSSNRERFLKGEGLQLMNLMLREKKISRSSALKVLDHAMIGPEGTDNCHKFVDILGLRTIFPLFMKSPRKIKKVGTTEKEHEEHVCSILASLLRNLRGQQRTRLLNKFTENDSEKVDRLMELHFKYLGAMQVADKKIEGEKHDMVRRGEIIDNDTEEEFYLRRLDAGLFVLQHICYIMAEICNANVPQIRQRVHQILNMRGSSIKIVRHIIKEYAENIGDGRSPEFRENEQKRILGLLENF
UniProt Q9NRF8: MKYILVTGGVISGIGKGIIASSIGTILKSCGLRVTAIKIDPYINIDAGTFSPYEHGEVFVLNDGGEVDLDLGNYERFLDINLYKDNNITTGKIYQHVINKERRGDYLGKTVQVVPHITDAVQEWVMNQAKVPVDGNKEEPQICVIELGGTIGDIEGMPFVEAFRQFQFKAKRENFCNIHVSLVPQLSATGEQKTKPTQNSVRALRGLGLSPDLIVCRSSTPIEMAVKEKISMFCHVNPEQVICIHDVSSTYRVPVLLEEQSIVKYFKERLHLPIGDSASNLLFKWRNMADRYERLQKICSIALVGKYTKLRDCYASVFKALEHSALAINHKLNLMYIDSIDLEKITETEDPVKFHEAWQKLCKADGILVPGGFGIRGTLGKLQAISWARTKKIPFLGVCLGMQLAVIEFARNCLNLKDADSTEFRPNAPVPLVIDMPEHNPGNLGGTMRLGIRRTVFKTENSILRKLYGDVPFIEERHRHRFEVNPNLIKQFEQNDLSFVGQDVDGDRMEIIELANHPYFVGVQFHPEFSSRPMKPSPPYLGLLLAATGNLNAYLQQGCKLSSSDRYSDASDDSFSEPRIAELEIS
UniProt Q9P021, whole entry, looked up: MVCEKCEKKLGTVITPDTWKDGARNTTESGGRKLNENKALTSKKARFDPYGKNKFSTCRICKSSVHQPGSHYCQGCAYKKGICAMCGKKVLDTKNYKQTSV
UniProt P50461: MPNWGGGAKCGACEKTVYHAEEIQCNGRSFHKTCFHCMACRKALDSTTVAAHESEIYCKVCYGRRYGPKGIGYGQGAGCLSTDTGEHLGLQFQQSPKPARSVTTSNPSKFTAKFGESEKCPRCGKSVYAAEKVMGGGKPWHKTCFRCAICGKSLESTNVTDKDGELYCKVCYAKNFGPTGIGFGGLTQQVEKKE
UniProt Q96F07, whole entry, looked up: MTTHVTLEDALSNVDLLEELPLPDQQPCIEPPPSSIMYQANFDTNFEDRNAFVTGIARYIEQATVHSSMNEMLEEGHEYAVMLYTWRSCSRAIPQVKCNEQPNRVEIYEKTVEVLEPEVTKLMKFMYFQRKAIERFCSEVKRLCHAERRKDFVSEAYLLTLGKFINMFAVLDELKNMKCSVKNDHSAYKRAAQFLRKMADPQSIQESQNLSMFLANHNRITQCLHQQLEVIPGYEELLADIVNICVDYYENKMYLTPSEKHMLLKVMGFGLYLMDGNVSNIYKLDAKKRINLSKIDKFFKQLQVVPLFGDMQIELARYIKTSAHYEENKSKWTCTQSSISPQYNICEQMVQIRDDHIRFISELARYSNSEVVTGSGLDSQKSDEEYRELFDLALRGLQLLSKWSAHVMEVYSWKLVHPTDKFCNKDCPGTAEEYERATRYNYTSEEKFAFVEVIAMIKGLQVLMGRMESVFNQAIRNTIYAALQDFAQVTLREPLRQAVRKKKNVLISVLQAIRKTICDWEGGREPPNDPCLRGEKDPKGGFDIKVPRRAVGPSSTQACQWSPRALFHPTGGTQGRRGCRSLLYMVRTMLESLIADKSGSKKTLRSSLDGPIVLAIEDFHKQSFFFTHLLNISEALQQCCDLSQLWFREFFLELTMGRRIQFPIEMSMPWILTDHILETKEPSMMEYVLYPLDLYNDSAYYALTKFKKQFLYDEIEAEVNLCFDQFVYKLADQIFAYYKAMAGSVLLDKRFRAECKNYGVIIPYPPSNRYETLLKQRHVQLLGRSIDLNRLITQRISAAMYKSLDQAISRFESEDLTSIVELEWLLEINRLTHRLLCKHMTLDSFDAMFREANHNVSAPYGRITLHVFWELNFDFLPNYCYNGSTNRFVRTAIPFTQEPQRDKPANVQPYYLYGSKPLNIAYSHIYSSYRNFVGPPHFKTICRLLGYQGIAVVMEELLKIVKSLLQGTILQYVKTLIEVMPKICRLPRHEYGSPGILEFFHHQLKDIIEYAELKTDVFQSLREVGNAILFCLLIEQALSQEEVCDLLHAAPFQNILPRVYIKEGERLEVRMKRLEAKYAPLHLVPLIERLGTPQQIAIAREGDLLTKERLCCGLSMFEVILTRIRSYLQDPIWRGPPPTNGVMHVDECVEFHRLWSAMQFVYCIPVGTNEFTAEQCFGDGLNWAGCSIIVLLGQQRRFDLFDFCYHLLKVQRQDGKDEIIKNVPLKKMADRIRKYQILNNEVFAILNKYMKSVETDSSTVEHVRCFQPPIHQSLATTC
UniProt Q9BZJ0: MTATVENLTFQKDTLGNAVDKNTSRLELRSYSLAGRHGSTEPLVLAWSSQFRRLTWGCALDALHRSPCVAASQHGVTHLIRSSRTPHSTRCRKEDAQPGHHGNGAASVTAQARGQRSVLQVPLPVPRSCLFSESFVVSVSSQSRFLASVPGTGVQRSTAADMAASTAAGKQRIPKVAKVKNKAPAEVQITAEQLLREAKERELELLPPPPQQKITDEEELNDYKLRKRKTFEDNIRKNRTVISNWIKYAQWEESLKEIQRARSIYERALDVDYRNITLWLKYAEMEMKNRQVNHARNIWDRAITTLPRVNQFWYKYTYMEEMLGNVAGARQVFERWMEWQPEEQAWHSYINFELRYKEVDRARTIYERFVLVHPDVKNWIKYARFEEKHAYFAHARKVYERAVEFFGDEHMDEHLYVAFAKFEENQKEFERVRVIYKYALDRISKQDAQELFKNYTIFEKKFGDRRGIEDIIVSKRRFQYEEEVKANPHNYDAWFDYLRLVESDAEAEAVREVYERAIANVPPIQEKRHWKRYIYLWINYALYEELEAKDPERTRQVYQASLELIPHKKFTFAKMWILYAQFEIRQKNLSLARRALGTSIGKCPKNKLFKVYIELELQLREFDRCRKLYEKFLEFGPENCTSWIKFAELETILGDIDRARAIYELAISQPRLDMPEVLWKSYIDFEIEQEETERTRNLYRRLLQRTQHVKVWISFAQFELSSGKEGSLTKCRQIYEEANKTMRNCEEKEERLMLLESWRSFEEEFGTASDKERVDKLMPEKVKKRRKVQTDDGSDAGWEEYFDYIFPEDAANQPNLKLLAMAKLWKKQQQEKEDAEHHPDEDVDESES
UniProt Q5TZA2: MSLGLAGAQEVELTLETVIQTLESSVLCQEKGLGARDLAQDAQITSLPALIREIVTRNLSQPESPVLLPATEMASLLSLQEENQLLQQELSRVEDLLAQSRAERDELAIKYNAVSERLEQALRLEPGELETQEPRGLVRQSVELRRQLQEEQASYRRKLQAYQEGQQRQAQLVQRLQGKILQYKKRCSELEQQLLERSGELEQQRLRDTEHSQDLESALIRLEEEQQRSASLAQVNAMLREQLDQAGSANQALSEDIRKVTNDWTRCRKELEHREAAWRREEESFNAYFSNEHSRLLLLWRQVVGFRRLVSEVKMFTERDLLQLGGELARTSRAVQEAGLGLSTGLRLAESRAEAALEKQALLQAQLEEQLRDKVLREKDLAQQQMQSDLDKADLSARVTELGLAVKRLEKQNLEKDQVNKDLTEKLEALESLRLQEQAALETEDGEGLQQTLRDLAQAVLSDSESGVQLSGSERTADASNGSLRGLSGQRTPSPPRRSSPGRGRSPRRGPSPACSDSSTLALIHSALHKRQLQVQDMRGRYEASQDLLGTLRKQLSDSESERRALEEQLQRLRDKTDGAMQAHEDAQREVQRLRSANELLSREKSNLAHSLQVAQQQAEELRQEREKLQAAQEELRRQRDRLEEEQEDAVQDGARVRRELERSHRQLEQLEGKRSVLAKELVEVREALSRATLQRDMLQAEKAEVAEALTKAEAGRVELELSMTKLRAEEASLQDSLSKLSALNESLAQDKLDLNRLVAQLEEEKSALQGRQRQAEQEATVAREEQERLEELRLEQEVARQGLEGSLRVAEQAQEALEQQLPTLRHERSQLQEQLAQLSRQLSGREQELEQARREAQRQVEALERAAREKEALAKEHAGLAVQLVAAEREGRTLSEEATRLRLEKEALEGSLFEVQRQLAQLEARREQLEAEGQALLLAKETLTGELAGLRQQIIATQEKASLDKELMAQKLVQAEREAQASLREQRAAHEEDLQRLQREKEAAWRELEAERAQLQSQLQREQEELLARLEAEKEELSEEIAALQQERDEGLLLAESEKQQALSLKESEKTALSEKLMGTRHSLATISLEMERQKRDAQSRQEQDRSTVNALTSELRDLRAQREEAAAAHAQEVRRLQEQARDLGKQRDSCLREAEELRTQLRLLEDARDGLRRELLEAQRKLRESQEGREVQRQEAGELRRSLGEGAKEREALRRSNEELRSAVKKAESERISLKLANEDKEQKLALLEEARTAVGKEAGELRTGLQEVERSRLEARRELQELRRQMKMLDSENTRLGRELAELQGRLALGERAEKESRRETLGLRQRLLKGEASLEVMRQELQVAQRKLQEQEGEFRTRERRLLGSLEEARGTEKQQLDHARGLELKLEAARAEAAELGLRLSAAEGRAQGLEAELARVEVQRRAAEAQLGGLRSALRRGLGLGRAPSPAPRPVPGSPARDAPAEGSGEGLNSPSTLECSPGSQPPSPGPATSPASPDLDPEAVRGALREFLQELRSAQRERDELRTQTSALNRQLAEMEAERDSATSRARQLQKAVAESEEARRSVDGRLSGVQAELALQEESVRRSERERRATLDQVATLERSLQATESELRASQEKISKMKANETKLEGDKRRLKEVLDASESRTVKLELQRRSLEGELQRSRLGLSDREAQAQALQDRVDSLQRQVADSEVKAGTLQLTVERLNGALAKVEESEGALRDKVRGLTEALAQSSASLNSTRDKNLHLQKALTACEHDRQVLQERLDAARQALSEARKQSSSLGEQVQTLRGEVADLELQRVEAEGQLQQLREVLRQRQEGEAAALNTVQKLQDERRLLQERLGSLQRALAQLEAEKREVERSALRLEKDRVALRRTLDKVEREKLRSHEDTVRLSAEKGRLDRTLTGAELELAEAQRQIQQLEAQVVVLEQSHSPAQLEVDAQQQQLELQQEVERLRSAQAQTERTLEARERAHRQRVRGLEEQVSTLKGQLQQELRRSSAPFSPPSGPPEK

Tests used:
Test in all cases: log2 fold change, soluble protein after heating vs DMSO (PISA); higher = thermal stabilisation; K562 lysate, 10 uM; active = over 0.2 and 3.5 SD of the protein, either way, in both replicates (recomputed)
[1] = compound: CS(=O)(=O)CCNCc1ccc(-c2ccc3ncnc(Nc4ccc(OCc5cccc(F)c5)c(Cl)c4)c3c2)o1 [lapatinib]
How it was run: (§1)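 Pellets of K562 cells were dounce-homogenised in PBS pH 7.4 with 1 mM MgCl2, and the crude extract was held at 1 mg/mL protein for a 30 min treatment with 10 μM compound. Aliquots were heated for 3 min over 48°C-58°C and pooled before NP-40 was added to 0.5% at 4°C. The supernatant from 21,000xg for 90 min was quantified by TMTpro 16plex LC-MS/MS with channel sums equalised. Values are reported from duplicates as log-two fold change in thermal stability relative to solvent controls.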

[2] = compound: CS(=O)(=O)N1CCN(Cc2cc3nc(-c4cccc5[nH]ncc45)nc(N4CCOCC4)c3s2)CC1 [pictilisib]
How it was run: as §1

[3] = compound: C[C@@H](Oc1cc(-c2cnn(C3CCNCC3)c2)cnc1N)c1c(Cl)ccc(F)c1Cl [crizotinib]
How it was run: as §1

[4] = compound: C[C@H](C1=CC=C(C=C1)C(=O)NC2=C3C=CNC3=NC=C2)N
How it was run: as §1

[5] = compound: C[C@H](Nc1ncnc2nc[nH]c12)c1cc2cccc(Cl)c2c(=O)n1-c1ccccc1 [duvelisib]
How it was run: as §1

[6] = compound: Cc1cc(Nc2cc(CN3CCOCC3)c3nc(C)c(Cc4ccc(Cl)cc4F)n3n2)n[nH]1 [gandotinib]
How it was run: as §1

[7] = compound: Cc1cc(Nc2cc(N3CCN(C)CC3)nc(Sc3ccc(NC(=O)C4CC4)cc3)n2)n[nH]1 [tozasertib]
How it was run: as §1

[8] = compound: Cc1ccc(-n2nc(C(C)(C)C)cc2NC(=O)Nc2ccc(OCCN3CCOCC3)c3ccccc23)cc1 [doramapimod]
How it was run: as §1

[9] = compound: Cc1ccc(NC(=O)c2ccc(CN3CC[C@H](N(C)C)C3)c(C(F)(F)F)c2)cc1Nc1nccc(-c2cncnc2)n1 [bafetinib]
How it was run: as §1

[10] = compound: Cc1cccc(CC(=O)N2CCc3c2ccc(-c2cn(C)c4ncnc(N)c24)c3F)n1
How it was run: as §1

[11] = compound: Cc1cn(-c2cc(NC(=O)c3ccc(C)c(Nc4nccc(-c5cccnc5)n4)c3)cc(C(F)(F)F)c2)cn1 [nilotinib]
How it was run: as §1

[12] = compound: Cc1nc(Nc2n[nH]c3c2CN(C(=O)N[C@H](CN(C)C)c2ccccc2)C3(C)C)c2sccc2n1
How it was run: as §1

[13] = compound: Cc1nc(Nc2ncc(C(=O)Nc3c(C)cccc3Cl)s2)cc(N2CCN(CCO)CC2)n1 [dasatinib]
How it was run: as §1

[14] = compound: Cc1ncc(-c2ccnc(Nc3ccc(S(C)(=O)=O)cc3)n2)n1C(C)C
How it was run: as §1

[15] = compound: Cn1cc(-c2ccc3c(c2)CCN3C(=O)Cc2cccc(C(F)(F)F)c2)c2c(N)ncnc21
How it was run: as §1

[16] = compound: Cn1cc(CNCC2CCN(c3ncc(C(=O)NO)cn3)CC2)c2ccccc21 [quisinostat]
How it was run: as §1

[17] = compound: Cn1cncc1[C@@](N)(c1ccc(Cl)cc1)c1ccc2c(c1)c(-c1cccc(Cl)c1)cc(=O)n2C [tipifarnib]
How it was run: as §1

[18] = compound: NC(=O)Nc1cc(-c2cccc(F)c2)sc1C(=O)N[C@H]1CCCNC1
How it was run: as §1

[19] = compound: NC(=O)c1cnc(N[C@@H]2CCCC[C@@H]2N)nc1Nc1cccc(-n2nccn2)c1
How it was run: as §1

[20] = compound: NC1(c2ccc(-c3nc4ccn5c(=O)[nH]nc5c4cc3-c3ccccc3)cc2)CCC1
How it was run: as §1

Measured: log2 fold change

CTNND1 isoform 3 (UniProt O60716)
inactive: [1] -0.019 | [2] -0.047 | [3] -0.039 | [4] -0.006 | [5] 0.008 | [6] -0.001 | [7] 0.002 | [8] 0.007 | [9] -0.025 | [10] 0.04 | [11] -0.027 | [12] -0.02 | [13] 0.006 | [14] -0.017 | [15] 0.009 | [16] -0.065 | [17] -0.06 | [18] 0.027 | [19] 0.065 | [20] -0.065

CSTF2T (UniProt Q9H0L4)
inactive: [1] 0.001 | [2] -0.035 | [3] 0.044 | [4] -0.005 | [5] -0.004 | [6] 0.012 | [7] -0.014 | [8] -0.003 | [9] 0.011 | [10] 0.076 | [11] 0.01 | [12] 0.011 | [13] 0.014 | [14] -0.033 | [15] -0.021 | [16] 0.043 | [17] 0.009 | [18] -0.013 | [19] 0.014 | [20] -0.015

CUTC (UniProt Q9NTM9)
inactive: [1] 0 | [2] -0.002 | [3] 0.034 | [4] -0.028 | [5] 0.016 | [6] 0.009 | [7] 0.016 | [8] 0.001 | [9] -0.003 | [10] 0.031 | [11] -0.052 | [12] 0.048 | [13] 0.025 | [14] 0 | [15] 0.036 | [16] -0.019 | [17] 0.018 | [18] -0.007 | [19] 0.003 | [20] -0.029

CTNNBL1 (UniProt Q8WYA6)
inactive: [1] 0 | [2] -0.011 | [3] -0.032 | [4] 0.015 | [5] 0 | [6] -0.058 | [7] 0.033 | [8] 0.058 | [9] -0.103 | [10] 0.043 | [11] -0.034 | [12] 0.02 | [13] 0.025 | [14] -0.013 | [15] -0.065 | [16] -0.008 | [17] -0.019 | [18] 0.02 | [19] 0.011 | [20] -0.138

Two successive records out of the list so far:
CUTC (UniProt Q9NTM9)
inactive: [1] 0 | [2] -0.002 | [3] 0.034 | [4] -0.028 | [5] 0.016 | [6] 0.009 | [7] 0.016 | [8] 0.001 | [9] -0.003 | [10] 0.031 | [11] -0.052 | [12] 0.048 | [13] 0.025 | [14] 0 | [15] 0.036 | [16] -0.019 | [17] 0.018 | [18] -0.007 | [19] 0.003 | [20] -0.029

CTNNBL1 (UniProt Q8WYA6)
inactive: [1] 0 | [2] -0.011 | [3] -0.032 | [4] 0.015 | [5] 0 | [6] -0.058 | [7] 0.033 | [8] 0.058 | [9] -0.103 | [10] 0.043 | [11] -0.034 | [12] 0.02 | [13] 0.025 | [14] -0.013 | [15] -0.065 | [16] -0.008 | [17] -0.019 | [18] 0.02 | [19] 0.011 | [20] -0.138

Following part:

CS (UniProt O75390)
inactive: [1] 0.001 | [2] -0.019 | [3] -0.014 | [4] 0.022 | [5] -0.017 | [6] -0.009 | [7] 0.047 | [8] -0.005 | [9] 0.035 | [10] -0.049 | [11] 0.008 | [12] -0.019 | [13] -0.009 | [14] -0.002 | [15] -0.024 | [16] -0.017 | [17] 0.022 | [18] -0.017 | [19] -0.004 | [20] -0.018

CTPS2 (UniProt Q9NRF8)
inactive: [1] -0.025 | [2] -0.018 | [3] -0.004 | [4] -0.032 | [5] 0.016 | [6] -0.002 | [7] 0.009 | [8] 0.021 | [9] 0.077 | [10] 0.003 | [11] -0.005 | [12] 0.006 | [13] -0.035 | [14] -0.002 | [15] 0.01 | [16] 0.029 | [17] 0.003 | [18] 0.001 | [19] -0.003 | [20] 0.012

CTCF (UniProt P49711)
inactive: [1] -0.025 | [2] 0.008 | [3] -0.025 | [4] 0.136 | [5] 0.017 | [6] -0.064 | [7] -0.03 | [8] -0.017 | [9] -0.02 | [10] -0.127 | [11] 0.016 | [12] -0.006 | [13] 0.013 | [14] -0.031 | [15] 0.046 | [16] -0.005 | [17] 0.023 | [18] 0.005 | [19] 0.003 | [20] -0.016

CRIPT (UniProt Q9P021)
inactive: [1] 0.15 | [2] -0.128 | [3] 0 | [4] 0.02 | [5] 0.016 | [6] 0.022 | [7] 0.009 | [8] -0.027 | [9] -0.17 | [10] -0.049 | [11] 0.021 | [12] -0.003 | [13] -0.019 | [14] 0.006 | [15] -0.002 | [16] 0.039 | [17] 0.025 | [18] -0.112 | [19] -0.042 | [20] -0.003

CTR9 (UniProt Q6PD62)
inactive: [1] -0.001 | [2] -0.02 | [3] -0.023 | [4] -0.048 | [5] 0.003 | [6] 0.008 | [7] 0.005 | [8] 0.008 | [9] -0.068 | [10] 0.04 | [11] 0.014 | [12] 0.007 | [13] -0.016 | [14] -0.007 | [15] 0.008 | [16] -0.007 | [17] -0.054 | [18] 0.001 | [19] -0.007 | [20] 0.018

CSNK1G3 (UniProt Q9Y6M4)
inactive: [1] -0.155 | [2] 0.118 | [3] 0.026 | [4] 0.214 | [5] -0.042 | [6] -0.032 | [7] -0.048 | [8] -0.003 | [9] -0.09 | [10] -0.021 | [11] -0.029 | [13] 0.002 | [15] 0.014 | [16] -0.067 | [17] 0.001 | [19] 0 | [20] 0.086
active: [12] 0.428 | [14] 0.388 | [18] 0.397

CSRP3 (UniProt P50461)
inactive: [1] 0.044 | [2] 0.016 | [3] -0.077 | [4] 0 | [5] 0.094 | [6] 0.037 | [7] 0.018 | [8] 0.068 | [9] -0.077 | [10] 0.017 | [11] 0.042 | [12] 0.145 | [13] -0.044 | [14] 0.12 | [15] 0.037 | [16] -0.028 | [17] 0.006 | [18] -0.172 | [19] 0.017 | [20] -0.01

CYFIP2 (UniProt Q96F07)
inactive: [1] -0.025 | [2] -0.024 | [3] -0.021 | [4] -0.026 | [5] -0.022 | [6] 0.012 | [7] -0.013 | [8] 0.006 | [9] -0.029 | [10] 0.014 | [11] 0.023 | [12] -0.049 | [13] 0.005 | [14] -0.007 | [15] 0.009 | [16] -0.014 | [17] -0.005 | [18] -0.008 | [19] 0.001 | [20] -0.024

CRNKL1 (UniProt Q9BZJ0)
inactive: [1] 0 | [2] 0.001 | [3] 0.063 | [4] 0.069 | [5] 0.068 | [6] -0.049 | [7] 0.058 | [8] 0.071 | [9] -0.043 | [10] 0.027 | [11] 0.005 | [12] 0.01 | [13] -0.16 | [14] 0.066 | [15] -0.064 | [16] 0.272 | [17] -0.027 | [18] -0.067 | [19] -0.001 | [20] 0.171

CUL7 isoform 2 (UniProt Q14999)
inactive: [1] 0.021 | [2] -0.014 | [3] -0.016 | [4] 0.15 | [5] -0.073 | [6] -0.097 | [7] -0.054 | [8] -0.047 | [9] -0.095 | [10] -0.01 | [11] 0.034 | [12] 0.01 | [13] 0.048 | [14] -0.025 | [15] 0.003 | [16] -0.063 | [17] -0.025 | [18] 0.113 | [19] -0.004 | [20] 0.014

CROCC (UniProt Q5TZA2)
inactive: [1] -0.138 | [2] -0.051 | [3] 0.014 | [4] -0.23 | [5] 0.105 | [6] 0.19 | [7] 0.097 | [8] 0.135 | [9] -0.032 | [10] 0.151 | [11] -0.027 | [12] -0.031 | [13] -0.076 | [14] -0.036 | [15] 0.199 | [16] 0.003 | [17] 0.001 | [18] -0.031 | [19] 0.163 | [20] 0.057

CTSC (UniProt P53634)
inactive: [1] -0.023 | [2] -0.017 | [3] 0.018 | [4] -0.16 | [5] 0.037 | [6] 0.047 | [7] -0.021 | [8] 0.031 | [9] 0.004 | [10] 0.104 | [11] -0.031 | [12] -0.034 | [13] 0.038 | [14] 0 | [15] -0.007 | [16] -0.064 | [17] 0.011 | [18] -0.018 | [19] -0.009 | [20] 0.015
